# The other results are listed elsewhere or left out.
# Amino acid sequences for entries named in this document (tags omitted). A change or cut given only in a name is not applied to a line headed by its entry.
# UniProt O94898: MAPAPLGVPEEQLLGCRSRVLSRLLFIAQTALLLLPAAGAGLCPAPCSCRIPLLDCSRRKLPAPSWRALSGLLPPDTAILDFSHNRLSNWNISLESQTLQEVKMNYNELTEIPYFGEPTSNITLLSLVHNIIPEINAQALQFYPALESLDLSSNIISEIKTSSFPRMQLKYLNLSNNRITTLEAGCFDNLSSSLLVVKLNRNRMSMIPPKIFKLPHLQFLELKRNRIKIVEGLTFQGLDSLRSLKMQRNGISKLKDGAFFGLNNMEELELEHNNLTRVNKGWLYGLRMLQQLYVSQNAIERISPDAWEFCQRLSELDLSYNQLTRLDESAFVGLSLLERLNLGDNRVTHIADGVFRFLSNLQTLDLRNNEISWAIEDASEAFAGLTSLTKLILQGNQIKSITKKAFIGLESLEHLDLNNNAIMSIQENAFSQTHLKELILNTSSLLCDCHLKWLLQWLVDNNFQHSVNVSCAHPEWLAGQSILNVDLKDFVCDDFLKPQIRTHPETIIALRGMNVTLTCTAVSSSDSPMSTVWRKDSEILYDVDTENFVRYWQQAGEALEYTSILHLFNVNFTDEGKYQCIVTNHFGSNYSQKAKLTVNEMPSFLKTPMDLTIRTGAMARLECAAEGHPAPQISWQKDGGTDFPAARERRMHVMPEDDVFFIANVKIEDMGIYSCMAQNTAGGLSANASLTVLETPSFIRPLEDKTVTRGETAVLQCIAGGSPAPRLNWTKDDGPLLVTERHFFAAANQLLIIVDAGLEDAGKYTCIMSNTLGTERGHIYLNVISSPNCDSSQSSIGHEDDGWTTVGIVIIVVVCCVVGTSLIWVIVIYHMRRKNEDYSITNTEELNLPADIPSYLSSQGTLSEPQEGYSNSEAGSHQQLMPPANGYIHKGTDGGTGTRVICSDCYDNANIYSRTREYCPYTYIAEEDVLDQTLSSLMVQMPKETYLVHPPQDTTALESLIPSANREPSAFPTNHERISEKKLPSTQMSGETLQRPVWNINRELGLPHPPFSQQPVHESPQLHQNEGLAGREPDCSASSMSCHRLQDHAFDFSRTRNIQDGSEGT
# UniProt Q86U70: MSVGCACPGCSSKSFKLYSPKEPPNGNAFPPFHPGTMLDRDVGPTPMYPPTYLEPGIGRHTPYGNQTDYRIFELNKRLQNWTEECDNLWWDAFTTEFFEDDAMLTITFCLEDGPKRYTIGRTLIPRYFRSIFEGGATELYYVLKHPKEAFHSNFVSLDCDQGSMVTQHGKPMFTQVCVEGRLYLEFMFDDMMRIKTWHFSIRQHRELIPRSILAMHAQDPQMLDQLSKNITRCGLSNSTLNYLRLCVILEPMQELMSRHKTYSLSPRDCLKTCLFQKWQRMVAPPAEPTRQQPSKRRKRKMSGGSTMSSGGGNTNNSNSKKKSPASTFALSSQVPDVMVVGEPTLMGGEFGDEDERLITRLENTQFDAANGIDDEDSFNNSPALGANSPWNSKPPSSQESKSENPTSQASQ
# UniProt Q9H089: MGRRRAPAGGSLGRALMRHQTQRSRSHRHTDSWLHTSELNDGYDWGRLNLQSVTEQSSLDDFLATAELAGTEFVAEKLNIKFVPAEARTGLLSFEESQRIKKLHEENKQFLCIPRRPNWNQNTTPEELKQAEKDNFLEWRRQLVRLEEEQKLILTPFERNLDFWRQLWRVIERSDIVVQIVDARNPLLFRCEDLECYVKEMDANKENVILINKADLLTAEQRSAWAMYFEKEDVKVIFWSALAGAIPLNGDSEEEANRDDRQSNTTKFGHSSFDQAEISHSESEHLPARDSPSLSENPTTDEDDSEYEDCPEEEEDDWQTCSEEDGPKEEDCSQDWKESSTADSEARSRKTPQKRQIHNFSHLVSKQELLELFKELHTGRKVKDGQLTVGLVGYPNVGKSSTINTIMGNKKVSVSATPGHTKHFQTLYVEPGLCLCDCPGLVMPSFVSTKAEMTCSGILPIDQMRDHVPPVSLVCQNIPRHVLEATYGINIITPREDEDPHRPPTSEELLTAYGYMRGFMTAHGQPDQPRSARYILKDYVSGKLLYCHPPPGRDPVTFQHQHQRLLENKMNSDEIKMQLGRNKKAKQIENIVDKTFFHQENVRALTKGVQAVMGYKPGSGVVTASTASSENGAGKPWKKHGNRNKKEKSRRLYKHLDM
# UniProt Q9NUN5: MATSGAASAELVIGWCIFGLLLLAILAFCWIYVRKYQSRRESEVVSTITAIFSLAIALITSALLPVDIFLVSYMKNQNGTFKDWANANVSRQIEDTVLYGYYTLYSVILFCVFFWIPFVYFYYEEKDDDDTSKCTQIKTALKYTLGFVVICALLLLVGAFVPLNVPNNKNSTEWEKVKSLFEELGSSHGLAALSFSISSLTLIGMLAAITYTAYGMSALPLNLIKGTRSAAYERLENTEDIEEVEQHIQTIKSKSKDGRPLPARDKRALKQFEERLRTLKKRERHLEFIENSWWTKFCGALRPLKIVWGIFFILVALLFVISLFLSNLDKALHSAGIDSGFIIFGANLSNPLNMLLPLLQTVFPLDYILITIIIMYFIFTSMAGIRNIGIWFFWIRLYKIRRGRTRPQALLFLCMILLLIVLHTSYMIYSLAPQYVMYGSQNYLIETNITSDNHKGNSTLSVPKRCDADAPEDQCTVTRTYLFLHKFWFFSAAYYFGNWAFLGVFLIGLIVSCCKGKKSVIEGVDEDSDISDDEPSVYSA
# UniProt Q15031: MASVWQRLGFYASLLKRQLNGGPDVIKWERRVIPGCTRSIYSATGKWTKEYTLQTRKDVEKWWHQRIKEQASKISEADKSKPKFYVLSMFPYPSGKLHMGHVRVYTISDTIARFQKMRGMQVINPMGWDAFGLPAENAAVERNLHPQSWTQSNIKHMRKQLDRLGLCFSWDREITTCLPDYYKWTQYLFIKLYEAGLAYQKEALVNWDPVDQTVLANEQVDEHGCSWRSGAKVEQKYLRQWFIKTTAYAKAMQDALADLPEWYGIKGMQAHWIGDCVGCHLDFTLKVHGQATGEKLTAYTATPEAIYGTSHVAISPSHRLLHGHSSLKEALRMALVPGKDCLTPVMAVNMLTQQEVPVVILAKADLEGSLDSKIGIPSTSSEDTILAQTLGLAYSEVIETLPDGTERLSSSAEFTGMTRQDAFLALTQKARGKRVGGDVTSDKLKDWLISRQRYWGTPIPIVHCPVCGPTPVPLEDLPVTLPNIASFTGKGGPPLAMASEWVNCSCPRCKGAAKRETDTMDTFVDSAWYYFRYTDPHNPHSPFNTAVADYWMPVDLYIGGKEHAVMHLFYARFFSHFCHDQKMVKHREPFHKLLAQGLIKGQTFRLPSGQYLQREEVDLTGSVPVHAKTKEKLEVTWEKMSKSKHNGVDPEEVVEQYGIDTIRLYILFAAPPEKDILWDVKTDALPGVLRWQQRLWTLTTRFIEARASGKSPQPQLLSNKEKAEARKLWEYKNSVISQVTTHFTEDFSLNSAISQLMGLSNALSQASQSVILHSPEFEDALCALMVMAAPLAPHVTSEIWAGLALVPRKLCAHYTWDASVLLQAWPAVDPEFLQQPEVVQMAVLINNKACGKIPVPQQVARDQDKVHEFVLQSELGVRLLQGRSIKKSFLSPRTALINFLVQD
# UniProt P50851: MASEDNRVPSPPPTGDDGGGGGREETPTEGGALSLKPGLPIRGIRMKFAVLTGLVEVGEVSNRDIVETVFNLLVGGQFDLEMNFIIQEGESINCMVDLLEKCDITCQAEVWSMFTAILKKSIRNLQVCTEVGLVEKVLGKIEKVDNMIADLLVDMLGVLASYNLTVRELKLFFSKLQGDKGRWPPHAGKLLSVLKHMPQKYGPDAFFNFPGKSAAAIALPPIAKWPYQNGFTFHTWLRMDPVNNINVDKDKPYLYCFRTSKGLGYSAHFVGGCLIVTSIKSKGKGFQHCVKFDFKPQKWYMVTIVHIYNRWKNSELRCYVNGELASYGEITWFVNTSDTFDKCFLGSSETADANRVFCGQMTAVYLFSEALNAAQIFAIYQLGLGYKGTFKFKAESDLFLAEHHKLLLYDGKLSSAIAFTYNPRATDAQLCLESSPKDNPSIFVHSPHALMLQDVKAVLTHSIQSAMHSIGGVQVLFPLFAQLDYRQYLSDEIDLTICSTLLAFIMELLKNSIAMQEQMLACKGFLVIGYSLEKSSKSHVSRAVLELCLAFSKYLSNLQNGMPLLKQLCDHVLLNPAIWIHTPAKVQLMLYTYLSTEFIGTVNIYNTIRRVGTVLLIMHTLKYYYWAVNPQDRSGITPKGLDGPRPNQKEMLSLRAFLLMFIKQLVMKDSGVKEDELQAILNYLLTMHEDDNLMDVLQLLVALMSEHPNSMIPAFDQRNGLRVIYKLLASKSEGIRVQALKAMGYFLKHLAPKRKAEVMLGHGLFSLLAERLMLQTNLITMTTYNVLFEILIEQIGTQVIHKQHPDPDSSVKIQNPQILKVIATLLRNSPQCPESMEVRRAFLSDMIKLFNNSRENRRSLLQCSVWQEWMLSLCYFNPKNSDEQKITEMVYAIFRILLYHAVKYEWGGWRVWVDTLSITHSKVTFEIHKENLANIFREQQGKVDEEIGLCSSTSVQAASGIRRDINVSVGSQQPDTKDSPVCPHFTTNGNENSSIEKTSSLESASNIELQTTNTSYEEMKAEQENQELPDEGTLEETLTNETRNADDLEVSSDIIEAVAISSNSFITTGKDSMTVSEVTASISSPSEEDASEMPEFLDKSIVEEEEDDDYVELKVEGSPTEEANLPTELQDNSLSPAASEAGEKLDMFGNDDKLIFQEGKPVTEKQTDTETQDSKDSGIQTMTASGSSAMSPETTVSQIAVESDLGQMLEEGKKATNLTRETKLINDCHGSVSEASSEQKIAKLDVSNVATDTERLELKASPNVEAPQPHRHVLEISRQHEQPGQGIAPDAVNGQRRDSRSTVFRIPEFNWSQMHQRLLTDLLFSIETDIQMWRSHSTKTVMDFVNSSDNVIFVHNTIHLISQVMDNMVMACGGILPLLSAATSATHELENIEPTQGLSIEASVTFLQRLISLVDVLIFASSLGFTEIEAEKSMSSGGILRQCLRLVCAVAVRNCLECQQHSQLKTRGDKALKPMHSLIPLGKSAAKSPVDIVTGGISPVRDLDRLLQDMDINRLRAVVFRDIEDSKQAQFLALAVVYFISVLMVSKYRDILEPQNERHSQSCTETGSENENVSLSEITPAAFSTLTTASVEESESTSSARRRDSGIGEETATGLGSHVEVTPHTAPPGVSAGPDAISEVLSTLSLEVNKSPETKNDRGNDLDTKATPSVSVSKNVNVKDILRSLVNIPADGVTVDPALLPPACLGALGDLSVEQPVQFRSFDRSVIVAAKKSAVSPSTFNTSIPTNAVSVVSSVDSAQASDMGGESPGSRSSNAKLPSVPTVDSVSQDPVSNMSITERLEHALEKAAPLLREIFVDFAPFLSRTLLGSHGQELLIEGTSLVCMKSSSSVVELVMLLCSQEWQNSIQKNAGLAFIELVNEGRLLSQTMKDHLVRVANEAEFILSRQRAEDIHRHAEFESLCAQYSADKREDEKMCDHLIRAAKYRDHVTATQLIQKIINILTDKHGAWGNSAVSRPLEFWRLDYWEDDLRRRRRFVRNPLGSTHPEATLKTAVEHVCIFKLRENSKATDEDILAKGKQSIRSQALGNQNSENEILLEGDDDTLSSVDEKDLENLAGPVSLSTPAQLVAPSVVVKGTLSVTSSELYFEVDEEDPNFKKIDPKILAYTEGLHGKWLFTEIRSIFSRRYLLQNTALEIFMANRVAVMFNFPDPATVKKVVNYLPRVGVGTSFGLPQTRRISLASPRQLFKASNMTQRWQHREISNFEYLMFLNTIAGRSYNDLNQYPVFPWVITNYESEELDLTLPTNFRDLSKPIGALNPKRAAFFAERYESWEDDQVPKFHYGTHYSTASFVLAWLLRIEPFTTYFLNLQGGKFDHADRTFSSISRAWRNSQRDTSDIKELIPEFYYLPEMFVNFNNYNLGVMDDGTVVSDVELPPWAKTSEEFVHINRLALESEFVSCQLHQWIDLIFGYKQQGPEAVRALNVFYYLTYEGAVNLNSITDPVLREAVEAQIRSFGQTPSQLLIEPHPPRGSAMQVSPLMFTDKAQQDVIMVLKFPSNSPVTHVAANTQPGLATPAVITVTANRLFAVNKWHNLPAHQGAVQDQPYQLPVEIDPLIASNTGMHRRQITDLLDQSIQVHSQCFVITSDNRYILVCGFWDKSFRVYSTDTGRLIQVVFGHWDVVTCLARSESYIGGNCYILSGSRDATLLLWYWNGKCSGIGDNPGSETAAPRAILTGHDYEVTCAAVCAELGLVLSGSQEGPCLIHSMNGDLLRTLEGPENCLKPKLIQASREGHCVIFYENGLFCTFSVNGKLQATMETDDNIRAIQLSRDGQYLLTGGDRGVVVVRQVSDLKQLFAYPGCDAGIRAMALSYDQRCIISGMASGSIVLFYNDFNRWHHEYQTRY
# UniProt P62310: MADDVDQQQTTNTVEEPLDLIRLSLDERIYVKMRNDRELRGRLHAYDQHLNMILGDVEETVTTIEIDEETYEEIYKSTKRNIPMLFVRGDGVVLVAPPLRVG
# Legend:
# Assay in all cases: log2 fold change, soluble protein after heating vs DMSO (PISA); higher = thermal stabilisation; K562 lysate, 10 uM; active = over 0.2 and 3.5 SD of the protein, either way, in both replicates (recomputed)
# [1] = compound: NCC(=O)Nc1ccc(-n2nc(C(F)(F)F)cc2-c2ccc3c(ccc4ccccc43)c2)cc1
# Summary of the method: (§1)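 The values are log-two fold changes in thermal stability compared with solvent controls and come from duplicates. They were obtained by TMTpro 16plex LC-MS/MS, with channel sums equalised, on the supernatant after 21,000xg for 90 min. That supernatant came from crude K562 extract at 1 mg/mL protein treated with 10 μM compound for 30 min, heated for 3 min across 48°C-58°C, pooled and brought to 0.5% NP-40 at 4°C.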
# vorinostat = compound: O=C(CCCCCCC(=O)Nc1ccccc1)NO [vorinostat]
# Summary of the method: as §1
# silmitasertib = compound: O=C(O)c1ccc2c(c1)nc(Nc1cccc(Cl)c1)c1ccncc12 [silmitasertib]
# Summary of the method: as §1
# [2] = compound: O=C1NC(=O)C(c2cnc3ccccn23)=C1c1cn2c3c(cc(F)cc13)CN(C(=O)N1CCCCC1)CC2
# Summary of the method: as §1
# entospletinib = compound: c1cn2cc(-c3ccc4cn[nH]c4c3)nc(Nc3ccc(N4CCOCC4)cc3)c2n1 [entospletinib]
# Summary of the method: as §1
Target,log2 fold change [1],log2 fold change (vorinostat),log2 fold change (silmitasertib),log2 fold change [2],log2 fold change (entospletinib)
LRCH4 (UniProt O75427),inactive: 0.038,inactive: -0.33,inactive: -0.005,inactive: -0.006,inactive: 0.032
LRRCC1 (UniProt Q9C099),inactive: 0.208,inactive: 0.043,inactive: -0.016,inactive: -0.135,inactive: -0.039
LIN28B (UniProt Q6ZN17),inactive: -0.005,inactive: 0.006,inactive: -0.03,inactive: -0.027,inactive: 0.036
LSM1 (UniProt O15116),inactive: -0.045,inactive: 0.152,inactive: -0.057,inactive: -0.041,inactive: -0.034
LDLRAP1 (UniProt Q5SW96),inactive: -0.021,inactive: -0.18,inactive: -0.045,inactive: 0.059,inactive: 0.043
LIMD1 (UniProt Q9UGP4),inactive: -0.018,inactive: -0.166,inactive: -0.004,inactive: -0.003,inactive: -0.004
LCMT1 (UniProt Q9UIC8),inactive: -0.063,inactive: 0.097,inactive: 0.033,inactive: 0.009,inactive: -0.017
"LRBA, A0A494BZW2",inactive: 0.026,inactive: -0.163,inactive: 0,inactive: -0.268,inactive: 0.099
LRRC8D (UniProt Q7L1W4),inactive: 0.056,inactive: 0.064,inactive: 0.004,inactive: -0.03,inactive: -0.014
LSM11 (UniProt P83369),inactive: 0.233,inactive: -0.027,inactive: 0.194,inactive: 0.014,inactive: -0.02
LRRC8B (UniProt Q6P9F7),inactive: 0.09,inactive: 0.005,inactive: 0.053,inactive: 0.027,inactive: -0.058
LTA4H (UniProt P09960),inactive: -0.01,inactive: 0.135,inactive: -0.024,inactive: -0.015,inactive: 0.009
LSM12 (UniProt Q3MHD2),inactive: 0.016,inactive: 0.031,inactive: -0.01,inactive: -0.007,inactive: -0.005
LRRC14 (UniProt Q15048),inactive: 0.038,inactive: -0.304,inactive: 0.014,inactive: -0.031,inactive: -0.014
LRIG2 (UniProt O94898),inactive: -0.161,inactive: 0.044,inactive: -0.181,inactive: 0.014,inactive: 0.012
LDB1 (UniProt Q86U70),inactive: 0.014,inactive: -0.054,inactive: -0.026,inactive: 0.036,inactive: -0.046
LLGL2 (UniProt Q6P1M3),inactive: -0.102,inactive: 0.021,inactive: -0.077,inactive: -0.062,inactive: -0.29
LSG1 (UniProt Q9H089),inactive: -0.074,inactive: -0.052,inactive: 0.043,inactive: 0.096,inactive: 0.139
LDAH isoform 2 (UniProt Q9H6V9),inactive: -0.017,inactive: -0.13,inactive: 0.064,inactive: 0.033,inactive: -0.029
LENG1 (UniProt Q96BZ8),inactive: 0.049,inactive: 0.053,inactive: 0.06,inactive: -0.002,inactive: -0.022
LMAN2 (UniProt Q12907),inactive: 0.006,inactive: 0.135,inactive: 0.003,inactive: 0.012,inactive: -0.006
LIN37 (UniProt Q96GY3),inactive: -0.2,inactive: 0.064,inactive: -0.042,inactive: 0.031,inactive: -0.059
LDLR (UniProt P01130),inactive: 0.004,inactive: 0.052,inactive: -0.029,inactive: -0.007,inactive: 0.01
LIMS1 isoform 3 (UniProt P48059),inactive: -0.022,inactive: 0.049,inactive: 0.013,inactive: 0.054,inactive: -0.016
LRRC8C (UniProt Q8TDW0),inactive: 0.001,inactive: -0.05,inactive: 0.005,inactive: -0.013,inactive: 0.075
LRIF1 (UniProt Q5T3J3),inactive: 0.079,inactive: 0.082,inactive: -0.11,inactive: -0.024,inactive: 0.001
LRRFIP2 (UniProt Q9Y608),inactive: 0.009,inactive: 0.06,inactive: 0.019,inactive: 0.051,inactive: -0.019

Target,log2 fold change [1],log2 fold change (vorinostat),log2 fold change (silmitasertib),log2 fold change [2],log2 fold change (entospletinib)
LMBRD1 (UniProt Q9NUN5),inactive: 0.031,inactive: 0.094,inactive: -0.051,inactive: -0.031,inactive: -0.071
LRSAM1 (UniProt Q6UWE0),inactive: 0.014,inactive: -0.047,inactive: 0.006,inactive: 0.017,inactive: 0.018
LPIN3 isoform 2 (UniProt Q9BQK8),inactive: 0.074,inactive: -0.075,inactive: 0.011,inactive: 0.013,inactive: 0.079
LRFN1 (UniProt Q9P244),inactive: -0.07,inactive: 0.173,inactive: -0.122,inactive: -0.015,inactive: 0.046
LARS2 (UniProt Q15031),inactive: -0.062,inactive: -0.229,inactive: 0.054,inactive: -0.083,inactive: 0.036
LGALS8 isoform 2 (UniProt O00214),inactive: -0.034,inactive: -0.01,inactive: 0.009,inactive: 0.004,inactive: -0.013
LASP1 (UniProt Q14847),inactive: 0.039,inactive: 0.152,inactive: -0.006,inactive: -0.006,inactive: 0.007
LRBA (UniProt P50851),inactive: 0.011,inactive: -0.111,inactive: 0.008,inactive: 0,inactive: 0.014
LSM14A isoform 2 (UniProt Q8ND56),inactive: -0.071,inactive: -0.074,inactive: -0.02,inactive: -0.043,inactive: -0.018
LNPEP (UniProt Q9UIQ6),inactive: 0.001,inactive: 0.102,inactive: 0.002,inactive: -0.005,inactive: 0.017
LIN9 isoform 2 (UniProt Q5TKA1),inactive: 0.073,inactive: -0.199,inactive: -0.01,inactive: -0.009,inactive: 0.016
LSS (UniProt P48449),inactive: -0.042,inactive: 0.049,inactive: -0.039,inactive: -0.014,inactive: -0.043
LRRC41 (UniProt Q15345),inactive: -0.017,inactive: -0.36,inactive: -0.085,inactive: -0.1,inactive: -0.021
LMAN2L isoform 2 (UniProt Q9H0V9),inactive: 0.047,inactive: 0.137,inactive: -0.05,inactive: 0.044,inactive: 0.038
LSM3 (UniProt P62310),inactive: 0.019,inactive: 0.135,inactive: -0.018,inactive: -0.005,inactive: -0.061
LHPP (UniProt Q9H008),inactive: -0.035,inactive: 0.137,inactive: -0.02,inactive: 0.009,inactive: -0.049
LRRFIP1 (UniProt Q32MZ4),inactive: 0.018,inactive: 0.002,inactive: -0.009,inactive: 0.003,inactive: -0.011
LRRC57 (UniProt Q8N9N7),inactive: 0.002,inactive: -0.144,inactive: 0,inactive: -0.022,inactive: -0.007
LPIN2 (UniProt Q92539),inactive: 0.046,inactive: -0.123,inactive: -0.016,inactive: 0.01,inactive: -0.069
LRPPRC (UniProt P42704),inactive: -0.004,active: -0.259,inactive: 0.072,inactive: 0.023,inactive: 0.035
LETMD1 isoform 7 (UniProt Q6P1Q0),inactive: -0.083,inactive: -0.033,inactive: 0.096,inactive: -0.021,inactive: 0.065
LDHB (UniProt P07195),inactive: 0.02,inactive: 0.147,inactive: -0.023,inactive: 0.015,inactive: 0.017
LMBRD2 (UniProt Q68DH5),inactive: 0.039,inactive: 0.125,inactive: 0.04,inactive: -0.046,inactive: -0.004
LAS1L (UniProt Q9Y4W2),inactive: -0.008,active: -0.397,inactive: 0.01,inactive: -0.018,inactive: -0.075
LCLAT1 (UniProt Q6UWP7),inactive: 0.001,inactive: 0.058,inactive: -0.008,inactive: 0.137,inactive: -0.024
LMAN1 (UniProt P49257),inactive: -0.005,inactive: 0.117,inactive: 0.021,inactive: -0.014,inactive: -0.023

# Pulled one by one from above (2):
Target,log2 fold change [1],log2 fold change (vorinostat),log2 fold change (silmitasertib),log2 fold change [2],log2 fold change (entospletinib)
LRRFIP1 (UniProt Q32MZ4),inactive: 0.018,inactive: 0.002,inactive: -0.009,inactive: 0.003,inactive: -0.011
LDHB (UniProt P07195),inactive: 0.02,inactive: 0.147,inactive: -0.023,inactive: 0.015,inactive: 0.017

# — the supplement of paper PMC10849652
